The record followed here is the supplement of paper PMC10849652.

Protein sequences, listed by entry. Tags and fused reporters are not part of them. Lines headed by an entry give the natural chain unless they say otherwise; changes in a name come on top.
UniProt Q6PI26: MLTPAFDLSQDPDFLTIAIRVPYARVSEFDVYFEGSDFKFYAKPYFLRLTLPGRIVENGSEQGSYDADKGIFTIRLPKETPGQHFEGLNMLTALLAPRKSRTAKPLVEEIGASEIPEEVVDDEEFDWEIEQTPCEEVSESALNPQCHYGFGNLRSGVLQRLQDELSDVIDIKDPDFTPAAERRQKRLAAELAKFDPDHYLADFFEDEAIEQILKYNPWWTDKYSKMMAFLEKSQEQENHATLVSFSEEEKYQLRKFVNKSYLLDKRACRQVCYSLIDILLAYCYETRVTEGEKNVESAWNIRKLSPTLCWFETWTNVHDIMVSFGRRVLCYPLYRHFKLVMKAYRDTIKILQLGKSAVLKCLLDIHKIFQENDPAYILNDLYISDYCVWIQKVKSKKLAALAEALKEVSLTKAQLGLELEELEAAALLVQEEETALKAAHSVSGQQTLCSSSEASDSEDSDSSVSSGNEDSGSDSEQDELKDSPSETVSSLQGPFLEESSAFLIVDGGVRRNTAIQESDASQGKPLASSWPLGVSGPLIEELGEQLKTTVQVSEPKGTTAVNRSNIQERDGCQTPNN
UniProt Q9BRG2: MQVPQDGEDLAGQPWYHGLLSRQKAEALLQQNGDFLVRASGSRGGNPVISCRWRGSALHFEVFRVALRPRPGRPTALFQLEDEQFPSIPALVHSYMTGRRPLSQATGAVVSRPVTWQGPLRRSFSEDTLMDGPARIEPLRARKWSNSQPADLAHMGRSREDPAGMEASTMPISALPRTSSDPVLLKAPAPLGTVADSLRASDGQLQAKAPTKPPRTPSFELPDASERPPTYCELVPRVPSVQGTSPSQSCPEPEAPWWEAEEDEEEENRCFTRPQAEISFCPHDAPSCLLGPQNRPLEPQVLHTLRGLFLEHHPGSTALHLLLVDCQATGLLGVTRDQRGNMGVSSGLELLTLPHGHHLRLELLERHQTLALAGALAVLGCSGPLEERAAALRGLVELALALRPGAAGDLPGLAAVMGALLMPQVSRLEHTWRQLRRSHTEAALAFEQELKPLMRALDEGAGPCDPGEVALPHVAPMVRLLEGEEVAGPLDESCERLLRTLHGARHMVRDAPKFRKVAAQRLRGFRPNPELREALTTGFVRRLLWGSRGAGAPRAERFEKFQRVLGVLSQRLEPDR
UniProt Q86VW0: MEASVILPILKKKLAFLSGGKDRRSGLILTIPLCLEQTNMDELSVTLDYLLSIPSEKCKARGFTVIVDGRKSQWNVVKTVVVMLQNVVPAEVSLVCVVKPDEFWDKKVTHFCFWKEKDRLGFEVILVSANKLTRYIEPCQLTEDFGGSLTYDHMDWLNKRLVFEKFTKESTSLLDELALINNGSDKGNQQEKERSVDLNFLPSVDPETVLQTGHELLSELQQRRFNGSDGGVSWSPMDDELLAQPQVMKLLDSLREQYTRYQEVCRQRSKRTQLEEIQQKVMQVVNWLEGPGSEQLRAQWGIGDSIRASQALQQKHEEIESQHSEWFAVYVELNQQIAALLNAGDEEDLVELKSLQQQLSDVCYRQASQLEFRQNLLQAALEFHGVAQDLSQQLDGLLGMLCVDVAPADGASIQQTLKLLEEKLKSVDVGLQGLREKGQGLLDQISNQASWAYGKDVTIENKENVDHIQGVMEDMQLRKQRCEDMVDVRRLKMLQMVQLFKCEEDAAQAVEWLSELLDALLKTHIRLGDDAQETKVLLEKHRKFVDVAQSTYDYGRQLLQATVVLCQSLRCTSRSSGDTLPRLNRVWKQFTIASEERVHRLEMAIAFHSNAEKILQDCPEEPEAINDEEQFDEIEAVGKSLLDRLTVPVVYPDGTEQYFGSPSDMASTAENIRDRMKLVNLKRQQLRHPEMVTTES
UniProt Q562F6: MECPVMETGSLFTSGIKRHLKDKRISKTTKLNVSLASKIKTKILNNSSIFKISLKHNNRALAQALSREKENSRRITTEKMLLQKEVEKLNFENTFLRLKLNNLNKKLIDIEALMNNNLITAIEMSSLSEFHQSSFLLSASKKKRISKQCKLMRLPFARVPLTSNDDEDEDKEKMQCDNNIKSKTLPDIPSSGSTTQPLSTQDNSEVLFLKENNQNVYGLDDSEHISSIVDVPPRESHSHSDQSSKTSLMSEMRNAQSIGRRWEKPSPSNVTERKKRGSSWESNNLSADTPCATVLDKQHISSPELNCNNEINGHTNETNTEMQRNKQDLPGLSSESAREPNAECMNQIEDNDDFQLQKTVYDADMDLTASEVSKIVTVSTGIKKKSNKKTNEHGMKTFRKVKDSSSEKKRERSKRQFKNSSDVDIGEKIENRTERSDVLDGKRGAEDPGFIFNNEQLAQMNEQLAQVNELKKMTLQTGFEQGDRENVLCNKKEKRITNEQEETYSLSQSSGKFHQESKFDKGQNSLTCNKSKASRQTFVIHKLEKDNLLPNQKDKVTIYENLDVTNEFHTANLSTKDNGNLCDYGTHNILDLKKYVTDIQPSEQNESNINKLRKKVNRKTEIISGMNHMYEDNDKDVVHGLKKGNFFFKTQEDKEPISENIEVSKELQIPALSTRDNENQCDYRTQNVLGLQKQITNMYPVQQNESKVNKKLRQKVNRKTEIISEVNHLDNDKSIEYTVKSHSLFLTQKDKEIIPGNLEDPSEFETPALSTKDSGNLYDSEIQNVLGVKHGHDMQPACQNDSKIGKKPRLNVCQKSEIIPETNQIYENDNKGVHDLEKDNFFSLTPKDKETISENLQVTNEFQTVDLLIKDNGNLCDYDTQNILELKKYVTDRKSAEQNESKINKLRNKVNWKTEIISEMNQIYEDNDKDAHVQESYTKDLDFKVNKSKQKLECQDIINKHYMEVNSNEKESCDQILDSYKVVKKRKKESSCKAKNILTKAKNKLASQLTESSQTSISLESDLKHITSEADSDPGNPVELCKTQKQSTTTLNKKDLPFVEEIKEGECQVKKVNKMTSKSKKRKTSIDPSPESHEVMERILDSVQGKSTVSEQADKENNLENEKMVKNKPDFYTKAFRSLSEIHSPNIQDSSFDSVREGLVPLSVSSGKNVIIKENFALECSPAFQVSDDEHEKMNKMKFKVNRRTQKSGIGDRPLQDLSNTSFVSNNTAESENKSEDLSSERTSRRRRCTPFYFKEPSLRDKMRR
UniProt Q9Y2K2: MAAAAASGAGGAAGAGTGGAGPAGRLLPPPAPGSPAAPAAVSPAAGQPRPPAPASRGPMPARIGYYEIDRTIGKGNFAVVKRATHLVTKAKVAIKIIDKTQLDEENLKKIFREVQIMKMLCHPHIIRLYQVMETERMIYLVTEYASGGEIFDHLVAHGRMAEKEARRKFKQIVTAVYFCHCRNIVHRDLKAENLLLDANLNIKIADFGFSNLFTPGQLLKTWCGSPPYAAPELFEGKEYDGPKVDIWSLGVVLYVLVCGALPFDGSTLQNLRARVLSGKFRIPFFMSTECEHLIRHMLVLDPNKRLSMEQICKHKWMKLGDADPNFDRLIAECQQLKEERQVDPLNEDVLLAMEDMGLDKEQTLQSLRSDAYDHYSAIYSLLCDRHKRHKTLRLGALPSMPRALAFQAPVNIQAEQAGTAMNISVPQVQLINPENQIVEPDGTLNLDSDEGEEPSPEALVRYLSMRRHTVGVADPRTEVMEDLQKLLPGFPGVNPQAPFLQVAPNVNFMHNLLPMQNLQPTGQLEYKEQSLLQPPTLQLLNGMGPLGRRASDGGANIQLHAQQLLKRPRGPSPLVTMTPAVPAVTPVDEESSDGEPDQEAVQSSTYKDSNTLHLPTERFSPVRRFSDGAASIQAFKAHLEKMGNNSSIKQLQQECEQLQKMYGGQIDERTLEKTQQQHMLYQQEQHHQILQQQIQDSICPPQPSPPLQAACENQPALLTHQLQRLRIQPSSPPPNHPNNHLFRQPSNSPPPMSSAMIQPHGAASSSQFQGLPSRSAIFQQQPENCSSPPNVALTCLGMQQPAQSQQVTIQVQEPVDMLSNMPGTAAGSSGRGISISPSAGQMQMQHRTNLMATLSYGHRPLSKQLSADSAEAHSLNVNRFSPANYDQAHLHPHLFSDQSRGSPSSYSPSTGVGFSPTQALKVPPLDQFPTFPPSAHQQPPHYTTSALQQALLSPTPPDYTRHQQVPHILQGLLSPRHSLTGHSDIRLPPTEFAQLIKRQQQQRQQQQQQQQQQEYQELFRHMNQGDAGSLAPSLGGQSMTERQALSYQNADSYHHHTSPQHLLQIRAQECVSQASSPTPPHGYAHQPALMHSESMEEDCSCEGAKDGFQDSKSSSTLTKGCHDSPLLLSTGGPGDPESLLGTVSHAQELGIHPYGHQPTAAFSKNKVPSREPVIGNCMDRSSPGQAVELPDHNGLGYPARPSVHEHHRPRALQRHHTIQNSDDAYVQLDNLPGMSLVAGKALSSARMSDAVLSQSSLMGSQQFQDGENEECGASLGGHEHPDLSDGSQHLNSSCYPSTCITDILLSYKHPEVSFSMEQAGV
UniProt Q15477, whole entry, looked up: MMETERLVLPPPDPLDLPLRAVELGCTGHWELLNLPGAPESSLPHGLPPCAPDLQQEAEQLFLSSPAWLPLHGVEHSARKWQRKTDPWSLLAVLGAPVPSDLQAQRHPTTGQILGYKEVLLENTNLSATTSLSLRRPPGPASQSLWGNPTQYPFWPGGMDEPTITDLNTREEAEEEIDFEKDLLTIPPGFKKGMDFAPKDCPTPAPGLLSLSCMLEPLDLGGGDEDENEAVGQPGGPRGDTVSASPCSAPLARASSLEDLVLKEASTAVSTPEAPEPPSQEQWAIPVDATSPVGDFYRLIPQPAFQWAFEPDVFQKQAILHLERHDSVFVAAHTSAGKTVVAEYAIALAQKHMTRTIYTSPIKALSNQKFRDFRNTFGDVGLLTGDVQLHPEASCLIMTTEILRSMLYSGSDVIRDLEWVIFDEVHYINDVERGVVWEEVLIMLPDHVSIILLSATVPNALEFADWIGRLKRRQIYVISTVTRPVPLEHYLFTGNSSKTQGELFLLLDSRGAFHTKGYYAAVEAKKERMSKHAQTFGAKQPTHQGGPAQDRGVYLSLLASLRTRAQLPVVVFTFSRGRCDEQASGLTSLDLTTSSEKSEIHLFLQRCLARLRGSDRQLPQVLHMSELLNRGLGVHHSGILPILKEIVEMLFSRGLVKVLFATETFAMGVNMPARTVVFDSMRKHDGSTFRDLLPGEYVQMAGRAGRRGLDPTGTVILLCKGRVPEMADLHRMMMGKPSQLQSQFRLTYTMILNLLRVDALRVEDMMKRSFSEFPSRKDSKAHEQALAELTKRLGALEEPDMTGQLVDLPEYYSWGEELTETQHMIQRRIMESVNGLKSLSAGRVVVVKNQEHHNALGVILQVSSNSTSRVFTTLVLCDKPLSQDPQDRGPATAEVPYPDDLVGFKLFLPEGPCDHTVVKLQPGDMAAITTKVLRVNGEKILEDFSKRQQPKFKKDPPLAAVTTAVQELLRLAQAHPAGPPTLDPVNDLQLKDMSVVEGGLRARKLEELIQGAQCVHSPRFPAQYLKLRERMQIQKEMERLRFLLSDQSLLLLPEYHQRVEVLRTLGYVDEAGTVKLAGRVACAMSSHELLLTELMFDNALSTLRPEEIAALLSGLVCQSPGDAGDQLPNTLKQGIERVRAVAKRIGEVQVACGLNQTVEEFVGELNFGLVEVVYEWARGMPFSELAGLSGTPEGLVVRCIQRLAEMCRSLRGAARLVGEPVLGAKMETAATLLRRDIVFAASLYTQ
UniProt Q8NDZ2: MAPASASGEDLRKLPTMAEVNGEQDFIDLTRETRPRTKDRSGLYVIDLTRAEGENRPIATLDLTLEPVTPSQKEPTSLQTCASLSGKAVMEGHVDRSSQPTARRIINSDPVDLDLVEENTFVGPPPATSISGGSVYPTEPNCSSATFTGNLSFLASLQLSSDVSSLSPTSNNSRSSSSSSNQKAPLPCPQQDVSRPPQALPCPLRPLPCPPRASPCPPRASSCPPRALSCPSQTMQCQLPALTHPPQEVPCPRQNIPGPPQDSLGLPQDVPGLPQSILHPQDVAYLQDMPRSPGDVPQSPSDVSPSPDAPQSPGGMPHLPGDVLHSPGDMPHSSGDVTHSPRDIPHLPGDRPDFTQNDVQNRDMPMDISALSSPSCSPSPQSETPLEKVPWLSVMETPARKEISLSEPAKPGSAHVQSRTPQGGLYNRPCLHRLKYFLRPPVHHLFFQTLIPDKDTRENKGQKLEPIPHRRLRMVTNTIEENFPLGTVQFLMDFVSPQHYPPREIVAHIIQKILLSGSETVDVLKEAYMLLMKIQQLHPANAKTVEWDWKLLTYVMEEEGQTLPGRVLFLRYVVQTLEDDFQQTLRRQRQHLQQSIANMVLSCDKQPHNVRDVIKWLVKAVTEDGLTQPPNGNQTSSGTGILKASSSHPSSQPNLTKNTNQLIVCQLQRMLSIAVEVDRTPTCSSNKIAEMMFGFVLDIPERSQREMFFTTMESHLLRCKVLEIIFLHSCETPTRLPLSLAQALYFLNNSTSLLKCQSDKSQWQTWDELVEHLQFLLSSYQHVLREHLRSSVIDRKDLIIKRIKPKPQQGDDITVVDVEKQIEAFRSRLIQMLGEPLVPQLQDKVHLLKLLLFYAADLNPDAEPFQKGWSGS

This is one part of the list.

Compound in one assay: C1=CC=C(C=C1)C2=NC(=C(N2)C3=CC=NC=C3)C4=CC(=C(C=C4)Cl)O
The experiment in a line: log2 fold change, soluble protein after heating vs DMSO (PISA); higher = thermal stabilisation; K562 lysate, 10 uM; active = over 0.2 and 3.5 SD of the protein, either way, in both replicates (recomputed). In short, it runs like this:
(§1)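 Quantification was by TMTpro 16plex LC-MS/MS with equalised channel sums, applied to the supernatant after 21,000xg for 90 min. Samples were crude K562 extract at 1 mg/mL protein in PBS pH 7.4 with 1 mM MgCl2, treated with 10 μM compound for 30 min, heated for 3 min across 48°C-58°C, pooled and brought to 0.5% NP-40 at 4°C. Values are log-two fold changes in thermal stability relative to solvent controls, from duplicates.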
For the target SHQ1 (UniProt Q6PI26), the log2 fold change was inactive: -0.039.
With SIK2 (UniProt Q9H0K1), the log2 fold change was inactive: 0.29.
SERPINA12 (UniProt Q8IW75): the log2 fold change was inactive: 0.319.
The same measure, in the same setting: to SETD6 (UniProt Q8TBK2) belongs inactive: 0.058.
As for SIAH1 isoform 2 (UniProt Q8IUQ4), the log2 fold change is inactive: 0.039.
On the same count and under the same terms, to SLC12A6 isoform 2 (UniProt Q9UHW9) belongs inactive: -0.019.
SH2B1 (UniProt Q9NRF2): the log2 fold change is inactive: 0.062.
For SERPINB7 (UniProt O75635), the log2 fold change was inactive: 0.206.
Regarding SLC20A2 (UniProt Q08357), the log2 fold change is inactive: 0.028.
As for SERPINB5 (UniProt P36952), the log2 fold change was inactive: 0.019.
Regarding SIAE (UniProt Q9HAT2), the log2 fold change was inactive: -0.059.
SH2D3A (UniProt Q9BRG2): the log2 fold change was inactive: -0.027.
With SESTD1 (UniProt Q86VW0), the log2 fold change was inactive: -0.198.
Take SGO2 (UniProt Q562F6): the log2 fold change was inactive: -0.108.
On the same count and under the same terms, with SFT2D3 (UniProt Q587I9) the figure was inactive: 0.023; with SIX5 (UniProt Q8N196), inactive: -0.034.
Consider SIK3 (UniProt Q9Y2K2), for which the log2 fold change is inactive: 0.073.
Regarding SERPINA1 (UniProt P01009), the log2 fold change is inactive: 0.863.
For the target SH2D1B (UniProt O14796), the log2 fold change was inactive: 0.035.
Still for that read-out and setting: to SHB (UniProt Q15464) belongs inactive: -0.014.
Take SLC10A4 (UniProt Q96EP9): the log2 fold change was inactive: 0.115.
As to SGSM3 isoform 2 (UniProt Q96HU1), the log2 fold change is inactive: 0.037.
Regarding SLC16A3 (UniProt O15427), the log2 fold change was inactive: -0.085.
On the same count and under the same terms, with SLAIN2 (UniProt D6RIF6) the figure was inactive: 0.142.

Compound in another assay: C1=CC=C2C(=C1)C3=NNC4=CC=CC(=C43)C2=O
The assay is described as above. In short, it runs like this:
as §1
As for SERPINF2 (UniProt P08697), the log2 fold change is inactive: -0.056.
On to SKIV2L (UniProt Q15477), for which the log2 fold change is inactive: 0.211.
For SLC10A3 (UniProt P09131), the log2 fold change was inactive: -0.045.
SF1 (UniProt H7C0N4): the log2 fold change was inactive: 0.199.
For the target SETD1B (UniProt Q9UPS6), the log2 fold change was inactive: -0.019.
On to SLC20A2 (UniProt Q08357), for which the log2 fold change was inactive: -0.005.
For SIGIRR (UniProt Q6IA17), the log2 fold change was inactive: -0.071.
In the case of SIMC1 (UniProt Q8NDZ2), the log2 fold change was inactive: 0.001.
SIN3B (UniProt O75182): the log2 fold change is inactive: 0.046.
Regarding SH2D1B (UniProt O14796), the log2 fold change is inactive: -0.05.
Still for that read-out and setting: with SERPINA7 (UniProt P05543) the figure was inactive: -0.011.
